Patent publication US11237155B2, “Screening methods using olfactory receptors and novel compounds identified using the same” (MARS, INCORPORATED, priority 2016, dated 2022)

System: Cat OR5A1
Test: CNG chAMPion assay, OR_9 (OR5A1), cat ortholog
Type: cell-based
Conditions: cat OR5A1, phase 3
Excerpt: This example refers to the functional expression of different feline and canine olfactory receptors (ORs). 20 OR sequences were selected, where 10 sequences have feline origins and the remaining 10 have canine origins. These ORs were subcloned into a modified expression vector suitable for the transient, functional expression of ORs. The transiently expressed receptors were then stimulated with various concentrations of different odorants aiming to deorphanize the feline and canine ORs. […] Functional expression of the different OR sets were transient in reporter cell line A or B. The transiently transfected ORs were stimulated with 3 concentrations (n=4) of different odorants (at least 3).
chAMPion (CNG channel) assay. […]
Twenty-four hours later, the cell medium was removed manually and cells were incubated in 20 μL/well coelenterazine (11 μM) in Tyrode buffer with 0 mM calcium for 3.5 h at 37° C. Plates were then read in a luminescence plate reader (FLIPR^TETRA, Molecular Devices) with the following camera settings: exposure time: 0.533 s, maximum gain. Luminescence was recorded for 1 min after addition of 10 μL/well compounds (3× solutions prepared in Tyrode buffer with 0 mM calcium), followed by an incubation period of 30 min at 37° C. Luminescence was again recorded for 1 min after addition of 20 μL/well Tyrode buffer with 10 mM CaCl2. […]

receptor response (dose-response, fold change): weaker responses
Structure (SMILES): CC(C)CC(=O)O [isovaleric acid, Isovaleric acid]
